No constants are given. Whether binding was seen depends on the method and setting. In cells and extracts the contact can be indirect. Some results given as binding are weak or reduced against the parent protein; the word gives no strength.
Target: T1, RNF128 (human) (UniProt Q8TEB7)
T1 sequence: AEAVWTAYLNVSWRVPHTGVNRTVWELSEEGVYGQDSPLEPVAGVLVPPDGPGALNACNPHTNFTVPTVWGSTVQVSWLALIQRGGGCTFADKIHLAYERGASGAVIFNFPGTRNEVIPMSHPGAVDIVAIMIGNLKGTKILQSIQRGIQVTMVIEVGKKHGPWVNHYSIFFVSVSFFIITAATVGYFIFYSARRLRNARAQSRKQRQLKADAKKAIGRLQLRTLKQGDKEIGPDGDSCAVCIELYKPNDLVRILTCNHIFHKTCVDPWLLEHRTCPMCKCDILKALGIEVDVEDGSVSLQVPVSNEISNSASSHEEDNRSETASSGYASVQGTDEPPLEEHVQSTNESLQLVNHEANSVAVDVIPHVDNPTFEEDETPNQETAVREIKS
Assay: co-IP; precleared cell lysates incubated with a primary antibody overnight at 4 °C, protein A- and G-Sepharose beads 2 h, washed three times with lysis buffer, western blot; cells and precipitating antibody not given

Amino acid sequences for entries named in this document (tags omitted). Residues count along the entry.
UniProt Q14247: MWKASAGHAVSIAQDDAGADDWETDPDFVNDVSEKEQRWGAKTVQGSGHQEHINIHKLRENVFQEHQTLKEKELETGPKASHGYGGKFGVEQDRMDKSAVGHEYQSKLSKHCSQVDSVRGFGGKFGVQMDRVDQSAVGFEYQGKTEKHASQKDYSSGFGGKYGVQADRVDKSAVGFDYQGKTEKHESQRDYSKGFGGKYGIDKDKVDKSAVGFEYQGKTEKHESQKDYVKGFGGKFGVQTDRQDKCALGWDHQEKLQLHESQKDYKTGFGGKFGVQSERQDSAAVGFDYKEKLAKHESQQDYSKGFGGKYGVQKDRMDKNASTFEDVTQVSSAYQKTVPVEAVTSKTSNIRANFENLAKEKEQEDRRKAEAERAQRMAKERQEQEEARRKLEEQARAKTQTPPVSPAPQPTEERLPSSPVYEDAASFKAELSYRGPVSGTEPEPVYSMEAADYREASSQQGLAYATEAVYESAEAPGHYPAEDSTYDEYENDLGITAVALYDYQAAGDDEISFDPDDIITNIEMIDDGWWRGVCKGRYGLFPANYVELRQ
UniProt P16070, residues 21-742: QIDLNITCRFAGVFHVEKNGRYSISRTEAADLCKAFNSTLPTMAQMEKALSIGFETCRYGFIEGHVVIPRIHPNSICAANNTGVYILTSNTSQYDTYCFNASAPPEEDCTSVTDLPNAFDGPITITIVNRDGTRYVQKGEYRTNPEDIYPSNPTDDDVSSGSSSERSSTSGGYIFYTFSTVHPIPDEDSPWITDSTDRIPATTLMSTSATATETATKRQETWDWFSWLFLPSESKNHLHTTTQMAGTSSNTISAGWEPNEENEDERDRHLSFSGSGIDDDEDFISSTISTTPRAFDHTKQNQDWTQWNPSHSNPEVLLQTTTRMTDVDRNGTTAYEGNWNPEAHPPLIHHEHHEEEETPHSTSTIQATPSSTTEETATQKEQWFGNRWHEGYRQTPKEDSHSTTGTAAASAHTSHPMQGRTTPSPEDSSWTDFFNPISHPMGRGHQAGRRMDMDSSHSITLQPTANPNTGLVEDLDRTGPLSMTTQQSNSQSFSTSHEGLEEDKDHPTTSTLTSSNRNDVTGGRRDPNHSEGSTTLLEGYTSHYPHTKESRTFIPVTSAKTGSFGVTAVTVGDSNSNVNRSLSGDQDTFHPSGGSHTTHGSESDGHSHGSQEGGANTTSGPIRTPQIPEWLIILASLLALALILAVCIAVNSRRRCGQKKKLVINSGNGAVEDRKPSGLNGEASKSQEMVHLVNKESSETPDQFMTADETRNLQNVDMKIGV

binding	Substance
binds	cortactin (CTTN) (from UniProt Q14247 1-550)
binds	CD44 (from UniProt P16070 21-742)
